Measurements reported in PubChem BioAssay AID2517 (National Center for Advancing Translational Sciences (NCATS), 2010).
In all, about 350,000 compounds went through this assay and about 1,200 (0.34%) were called active. The shares of active, inactive and inconclusive entries below differ from those in the screen. The call rests on the fitted dose curve; in most records, active means well fitted inhibition curve with a large enough effect; inconclusive means small, poorly fitted or top-dose-only effect; inactive means no such curve, though single readings can be large or run the other way. Potencies beside an inconclusive call are fits to weak or partial responses and may not hold up.

By UniProt entry, the sequences of proteins in these tests, tags left out.
UniProt P27695, whole entry, looked up: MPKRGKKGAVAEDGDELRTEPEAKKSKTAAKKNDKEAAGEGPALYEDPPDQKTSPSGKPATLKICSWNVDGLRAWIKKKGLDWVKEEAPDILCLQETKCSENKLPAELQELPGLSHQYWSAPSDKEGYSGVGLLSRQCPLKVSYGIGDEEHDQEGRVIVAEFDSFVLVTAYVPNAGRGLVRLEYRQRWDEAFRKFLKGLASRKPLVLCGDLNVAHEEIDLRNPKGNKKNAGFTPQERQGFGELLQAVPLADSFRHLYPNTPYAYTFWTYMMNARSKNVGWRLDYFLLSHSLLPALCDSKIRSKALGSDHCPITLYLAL

Each compound was assayed against DNA repair nuclease/redox regulator APEX1 (Homo sapiens) (UniProt P27695) (assay: qHTS Assay for Inhibitors of the Human Apurinic/apyrimidinic Endonuclease 1 (APE1)). Conditions: recombinant APE1, TAMRA/BHQ-2 abasic DNA cleavage fluorescence; activity change, negative = inhibition: at 65.8 µM (top of the series).
How it was run: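 Step 1: APE1 (0.75 nM) with compound, 15 min RT. Step 2: add 50 nM fluorophore/quencher THF duplex. Step 3: three fluorescence reads 60 s apart (525/598 nm); read 3 minus read 1 = reaction progress.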
Further: nearly all actives have a fitted effect of over 55% in size.
Potency means the concentration at half of the fitted maximal effect.
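Wherever activity change, negative = inhibition is given: plate controls were vehicle for no effect and reference inhibitor for full effect.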

Question: O=C(NCCc1c[nH]c2ccccc12)C(=O)NCC1OCCN1S(=O)(=O)c1ccc(F)cc1 (stereo unspecified) was tested. Which Potency did it give?
Answer: inconclusive: 0.794 µM [inhibitor, full curve, poor fit]

Question: For O=C(CN1C(=O)S/C(=C\c2ccc(O)c([N+](=O)[O-])c2)C1=O)Nc1ccc(N2CCOCC2)cc1, which Potency is on record?
Answer: inconclusive: 37.7 µM [inhibitor, single point]

Question: How did the Potency turn out when Cc1occc1C(=O)NCc1ccco1 was run?
Answer: inconclusive: 25.1 µM [inhibitor, partial curve]

Question: For CS(=O)c1ccccc1-c1nc(-c2ccc(Cl)cc2)no1 (stereo unspecified), which Potency is on record?
Answer: inconclusive: 0.708 µM [inhibitor, full curve, poor fit]

Question: NC(=O)N/N=C/c1ccc([N+](=O)[O-])o1 was tested. Which Potency did it give?
Answer: inconclusive: 31.6 µM [inhibitor, partial curve]

Question: Which Potency does the source give for COc1ccc(CCN2CC(C(=O)NCCc3ccc(C)cc3)CC2=O)cc1OC (stereo unspecified) here?
Answer: inconclusive: 44.7 µM [inhibitor, single point]

Question: With C=C1c2cccc(O)c2C(O)=C2C(=O)[C@]3(O)C(O)=C(C(N)=O)C(=O)C(N(C)C)C3C(O)C12 (stereo partly specified) as the compound, how does the Potency read?
Answer: active: 3.98 µM

Question: With Cc1ccc(CN(C(=O)c2ccccc2[N+](=O)[O-])C2CCS(=O)(=O)C2)o1 (stereo unspecified) as the compound, how does the Potency read?
Answer: inconclusive: 23.8 µM [inhibitor, single point]

Question: COC(=O)C(C)CCCC(C)CCCC(C)CCCC(C)C (stereo unspecified) was tested. Which Potency did it give?
Answer: inconclusive: 20 µM [inhibitor, single point]

Question: With CCOC(=O)C1CCCN(S(=O)(=O)c2ccc(NC(C)=O)cc2)C1 (stereo unspecified) as the compound, how does the Potency read?
Answer: inconclusive: 0.794 µM [inhibitor, full curve]

Question: With Cc1ccc(-c2cc(C(=O)N3CCN(c4ccc(F)cc4)CC3)c3ccccc3n2)o1 as the compound, how does the Potency read?
Answer: inconclusive: 39.8 µM [inhibitor, single point]

Question: With COc1ccc(-n2c(=O)c(-c3cccs3)nc3cnc(N(C)C)nc32)cc1 as the compound, how does the Potency read?
Answer: inconclusive: 39.8 µM [inhibitor, single point]

Question: With CC(C)(C)N1C(=O)[C@H]2[C@H]3[C@H](O)[C@H](O)C/C(=N/OCc4ccccc4)[C@H]3CC[C@@H]2C1=O as the compound, how does the Potency read?
Answer: inconclusive: 8.91 µM [inhibitor, single point]

Question: Which “activity change, negative = inhibition” value does the source give for O=c1ccn([C@@H]2O[C@H](COP(=O)(O)O)[C@@H](O)[C@H]2O)c(=O)[nH]1 here?
Answer: inactive: -4.2%

Question: COc1ccc(N2C(=O)CC(Cc3ccc(Br)cc3)C2=O)cc1 (stereo unspecified) was tested. Which Potency did it give?
Answer: inconclusive: 21.2 µM [inhibitor, partial curve]

Question: For Cn1c(=O)n(-c2ccc(Cl)cc2)c(=O)c2c3c(sc21)COC(C)(C)C3, which Potency is on record?
Answer: inconclusive: 22.4 µM [inhibitor, single point]

Question: With CSc1ccccc1C(=O)C1CCCN(C(=O)c2ccc(N3CCOCC3)cc2)C1 (stereo unspecified) as the compound, how does the Potency read?
Answer: inconclusive: 8.91 µM [inhibitor, single point]

Question: With N#Cc1nc(COc2ccccc2)oc1N1CCCCCC1 as the compound, how does the Potency read?
Answer: inconclusive: 11.2 µM [inhibitor, partial curve]

Question: Which Potency does the source give for COc1ccc(C(=O)N/C(=C\c2cn(S(=O)(=O)N(C)C)c3ccccc23)C(=O)NC(C)C)cc1 here?
Answer: inconclusive: 15.8 µM [inhibitor, single point]

Question: CC(C)C[C@H](NC(=O)[C@H](CCCCN)NC(=O)[C@H](CCCNC(=N)N)NC(=O)[C@H](C)NC(=O)[C@H](CO)NC(=O)[C@H](CCCCN)NC(=O)[C@H](CCCNC(=N)N)NC(=O)[C@H](C)NC(=O)CNC(=O)[C@@H](NC(=O)[C@H](Cc1ccccc1)NC(=O)CNC(=O)CNC(=O)[C@@H](N)Cc1ccccc1)[C@@H](C)O)C(=O)N[C@@H](C)C(=O)N[C@@H](CC(N)=O)C(=O)N[C@@H](CCC(N)=O)C(=O)O was tested. Which “activity change, negative = inhibition” value did it give?
Answer: inactive: 2.19%

Question: CN(CCOc1ccccc1)C(=O)c1ccc(OC2CCN(C(=O)C3CC3)CC2)cc1 was tested. Which “activity change, negative = inhibition” value did it give?
Answer: inactive: -2%

Question: For CCN(CC(=O)Nc1c(F)cccc1F)C(=O)c1cc(S(=O)(=O)N(CC)CC)ccc1N1CCCCC1, which Potency is on record?
Answer: inconclusive: 5.97 µM [inhibitor, single point]

Question: With COc1ccc(C(=O)N/N=C/c2ccc3cccc(O)c3n2)cc1 as the compound, how does the Potency read?
Answer: inconclusive: 39.8 µM [inhibitor, single point]

Question: CC(C)N(C(=S)NCc1ccccc1)C(C)C was tested. Which Potency did it give?
Answer: inconclusive: 0.0011 µM [inhibitor, full curve, poor fit]

Question: With Cc1cc(C(=O)COC(=O)c2ccc(O)cc2)c(C)n1CCc1ccc(F)cc1 as the compound, how does the Potency read?
Answer: inconclusive: 8.91 µM [inhibitor, single point]

Question: With O=C(CSc1ccc(Cl)cc1)NC(=O)NCc1ccco1 as the compound, how does the Potency read?
Answer: inconclusive: 25.1 µM [inhibitor, partial curve, poor fit]

Question: CCOC(=O)C1=NNC(C(=O)c2ccc(C)cc2)C1c1ccc(C)cc1 (stereo unspecified) was tested. Which “activity change, negative = inhibition” value did it give?
Answer: inactive: -8.56%

Question: Which “activity change, negative = inhibition” value does the source give for O=C(CN1C(=O)NC2(CCCC2)C1=O)Nc1cccc(Cl)c1 here?
Answer: inactive: 6.99%

Question: How did the Potency turn out when CC1=C(C(=O)OCc2ccccc2)C(c2ccc([N+](=O)[O-])cc2)NC(=O)N1CCCCCC(=O)O (stereo unspecified) was run?
Answer: inconclusive: 3.16 µM [inhibitor, single point]

Question: Brc1c(Br)c(Br)c2n[nH]nc2c1Br was tested. Which Potency did it give?
Answer: inactive

Question: Which Potency does the source give for CN(C)c1ccc(C(CNC(=O)c2ccc(F)cc2)c2c[nH]c3ccccc23)cc1 (stereo unspecified) here?
Answer: inconclusive: 22.4 µM [inhibitor, single point]

Question: With CS(=O)(=O)N1CC2CCCN2c2ccc(C(F)(F)F)cc21 (stereo unspecified) as the compound, how does the Potency read?
Answer: inconclusive: 44.7 µM [inhibitor, single point]

Question: How did the Potency turn out when CC(=O)Nc1nc(-c2ccccc2)c(-c2ccccc2)o1 was run?
Answer: inconclusive: 1 µM [inhibitor, full curve, poor fit]

Question: Which Potency does the source give for Cc1cnccc1CN(C)C(=O)C1CCC(=O)N(Cc2ccccc2F)C1 (stereo unspecified) here?
Answer: inconclusive: 8.44 µM [inhibitor, single point]

Question: For O=C(CSc1nnc2c3ccccc3c3ccccc3c2n1)Nc1ccccc1F, which “activity change, negative = inhibition” value is on record?
Answer: inactive: -3.64%

Question: For Cn1c(=O)oc2cc(S(=O)(=O)NCCN3CCN(c4ccccc4F)CC3)ccc21, which Potency is on record?
Answer: inconclusive: 44.7 µM [inhibitor, single point]

Question: Which Potency does the source give for CC1CN(S(=O)(=O)c2cccc(C(=O)OC/C(O)=C(\C#N)c3nc4ccccc4[nH]3)c2)CC(C)O1 (stereo unspecified) here?
Answer: inconclusive: 35.5 µM [inhibitor, single point]

Question: Which Potency does the source give for COc1ccccc1-n1c(C)nnc1SCC(N)=O here?
Answer: inconclusive: 44.7 µM [inhibitor, partial curve, poor fit]

Question: CC1(c2ccccc2)CC(C)(C)N2C(=O)Cc3cccc1c32 (stereo unspecified) was tested. Which Potency did it give?
Answer: inconclusive: 39.8 µM [inhibitor, single point]

Question: How did the Potency turn out when CN1CCC(=NNC(=O)C(=O)Nc2cccc(Br)c2)CC1 was run?
Answer: inconclusive: 0.178 µM [inhibitor, partial curve]

Question: For COc1ccc(Nc2ccc(N3C(=O)CC(C)C3=O)cc2[N+](=O)[O-])cn1 (stereo unspecified), which Potency is on record?
Answer: inconclusive: 0.004 µM [inhibitor, full curve, poor fit]

Question: With O=S(=O)(c1ccccc1)c1nc(-c2ccccc2)oc1NCc1cccnc1 as the compound, how does the Potency read?
Answer: inconclusive: 44.7 µM [inhibitor, single point]

Question: With CCOCc1cnc(C)nc1NCC(=O)c1c(C)[nH]c2ccccc12 as the compound, how does the Potency read?
Answer: inconclusive: 0.282 µM [inhibitor, full curve, poor fit]

Question: Which Potency does the source give for O=C(Nc1ccccc1)N1CCN(C2c3ccccc3-c3ccccc32)CC1 here?
Answer: inconclusive: 7.08 µM [inhibitor, single point]

Question: Which Potency does the source give for CCCC(=O)Nc1ccc2c(c1)nc(CCNC(=O)c1ccco1)n2C here?
Answer: inconclusive: 3.98 µM [inhibitor, single point]

Question: For Brc1cccc(-c2cnc3n2CCCCC3)c1, which Potency is on record?
Answer: inconclusive: 31.6 µM [inhibitor, single point]

Question: With COc1cccc(NC(=O)CCCn2nc(C)c3c(C)n(-c4ccccc4)nc3c2=O)c1 as the compound, how does the Potency read?
Answer: inconclusive: 21.2 µM [inhibitor, single point]

Question: Which Potency does the source give for Cc1noc(C)c1COC(=O)/C=C/c1ccccc1Cl here?
Answer: inconclusive: 56.2 µM [inhibitor, partial curve]

Question: Which Potency does the source give for COc1cc2c(cc1OC)CN(C(=O)CCN1C(=O)C3CCCCC3C1=O)CC2 (stereo unspecified) here?
Answer: inconclusive: 39.8 µM [inhibitor, single point]

Question: Which Potency does the source give for O=C(O)c1ccccc1OS(=O)(=O)O here?
Answer: inconclusive: 39.8 µM [inhibitor, partial curve]

Question: C=CCc1cccc2cc(C(=O)Nc3ccc(CC(=O)O)cc3)c(=O)oc12 was tested. Which Potency did it give?
Answer: inconclusive: 35.5 µM [inhibitor, single point]

Question: CN1CCN(C(=O)/C(=C\c2ccc3c(c2)OCO3)NC(=O)c2cccs2)CC1 was tested. Which Potency did it give?
Answer: inconclusive: 44.7 µM [inhibitor, single point]

Question: O=C(Nc1ccc2c(c1)OCO2)C1Cc2ccccc2CN1S(=O)(=O)c1cccs1 (stereo unspecified) was tested. Which Potency did it give?
Answer: inconclusive: 31.6 µM [inhibitor, single point]

Question: How did the “activity change, negative = inhibition” value turn out when CCOCC(=O)Nc1ccc(-c2cn3cccnc3n2)cc1 was run?
Answer: inactive: -19.1%

Question: How did the “activity change, negative = inhibition” value turn out when CCN1C(=O)[C@H]2[C@H]3CN=C(SCc4ccc(C)cc4)N3[C@@](Cc3ccccc3)(C(=O)OC)[C@H]2C1=O was run?
Answer: inactive: -5.33%

Question: For Cc1cccc2sc(NC(=O)Cn3c(C)csc3=O)nc12, which “activity change, negative = inhibition” value is on record?
Answer: inactive: -10%

Question: How did the Potency turn out when Cc1ccc(/C([O-])=C(/C(=S)NCc2ccco2)[n+]2ccccc2)cc1 was run?
Answer: inconclusive: 25.1 µM [inhibitor, partial curve]

Question: Which Potency does the source give for O=c1cc(-c2ccc(O)cc2)oc2c(-c3cc(-c4cc(=O)c5c(O)cc(O)cc5o4)ccc3O)c(O)ccc12 here?
Answer: inconclusive: 22.4 µM [inhibitor, partial curve]

Question: COc1ccc(/C=N/Nc2cc(C)nc(N)n2)cc1 was tested. Which “activity change, negative = inhibition” value did it give?
Answer: inactive: -9.15%

Question: COc1cccc(-c2nnn(CC(=O)O)n2)c1 was tested. Which Potency did it give?
Answer: inconclusive: 56.2 µM [inhibitor, partial curve, poor fit]

Question: How did the “activity change, negative = inhibition” value turn out when O=C(Cc1cccs1)N/N=C/C=C/c1ccco1 was run?
Answer: inactive: 15.7%
